Laboratory results from paper PMC11267547, “Advancing drug discovery through assay development: a survey of tool compounds within the human solute carrier superfamily” (Frontiers in Pharmacology, 2024).

tested on: all proteins (SLCs and non-SLCs); assay: Selectivity entropy score against all proteins (S_other); set-up: species or system human; details: selectivity entropy score against all proteins, from database activities

| Structure (SMILES) | S_other |
| --- | --- |
| CCOC(=O)N1CCC(=C2c3ccc(Cl)cc3CCc3cccnc32)CC1 [Loratadine] | 1.57 |
| COCCOc1cc(CC2CCN(CCc3ccc4c(c3)C(=O)CCO4)CC2)ccc1Br [DSP-1053] | 0.56 |
| CNCCCN1c2ccccc2CCc2ccccc21 [Desipramine] | 0.2 |
| Cc1ccsc1C(=CCCN1CCC[C@@H](C(=O)O)C1)c1sccc1C [Tiagabine] | 0 |
| Nc1nc2ccc(OC(F)(F)F)cc2s1 [Riluzole] | 1.45 |
| COc1ccc(C2C(C#N)=C(N)OC3=C2C(=O)CC(c2cccc4ccccc24)C3)cc1 (stereo not drawn) [UCPH-101] | 0 |
| N[C@@H](CC(=O)Nc1ccc(Oc2cc(F)c(F)cc2Br)cc1)C(=O)O [WAY-213613] | 0.44 |
| NC(C(=O)O)C(OCc1ccccc1)C(=O)O (stereo not drawn) [Threo-beta-benzyloxyaspartic acid, Threo-beta-Benzyloxyaspartic acid] | 0.97 |
| Fc1ccc(C(OCCN2CCN(CCCc3ccccc3)CC2)c2ccc(F)cc2)cc1 [Vanoxerine (GBR12909), Vanoxerine] | 0.72 |
| N#Cc1ccc(Nc2cnccc2SCc2ccccc2C(=O)O)c2ccccc12 [KPH2f] | 0.21 |
| CC(C)[C@H]1CN[C@H](C(=O)O)[C@H]1CC(=O)O [Dihydrokainate] | 0 |
| Cc1c(NC(=O)c2cc(C(N)=O)nc3cc(F)ccc23)c(C(F)(F)F)nn1Cc1ccc(C#N)cc1 [BAY-876] | 0.17 |
| N[C@H](C(=O)O)[C@H](OCc1cccc(NC(=O)c2ccc(C(F)(F)F)cc2)c1)C(=O)O [TFB-TBOA] | 0.82 |
| CC1C(C#N)=C(N)OC2=C1C(=O)CC(c1cccc3ccccc13)C2 (stereo not drawn) [UCPH-102] | 0 |
| CCNC(=O)/C=C/c1cccc(Br)c1 [Cinromide] | 0 |
| CN1C2CCC1CC(OC(c1ccccc1)c1ccccc1)C2 (stereo not drawn) [Benzotropine] | 0 |

same assay, conditions: selectivity entropy score from database activities

| Structure (SMILES) | S_other |
| --- | --- |
| CNCCCN1c2ccccc2CCc2ccccc21 [Desipramine] | 0.2 |
| N#Cc1ccc(Nc2cnccc2SCc2ccccc2C(=O)O)c2ccccc12 [KPH2f] | 0.21 |
